In PubChem BioAssay AID1487 (National Center for Advancing Translational Sciences (NCATS), 2009):
Some of the results follow. The main result of the screen is listed elsewhere. These columns were measured beside it and carry no call. Compounds called inactive in the main read-out are mostly missing here. The note in brackets gives the kind of curve behind each potency; many fits are weak.

Test: qHTS Assay for Modulators of Lamin A Splicing
Details: HeLa LMNA splicing GFP/RFP minigene ratio, 48 h
Procedure, shortened: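 Read-out is the ratio of GFP to DsRed2 object intensity, acquired by 488 nm laser-scanning cytometry on HeLa lamin A-EGFP minigene reporter cells. Compound incubation 48 hrs at 37 °C in Opti-MEM with 2% FBS; DMSO 0.5% final.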

[1] = measured here: RFP viability control channel
[2] = measured here: GFP splicing reporter channel

| SMILES | AC50 [1] | AC50 [2] |
| --- | --- | --- |
| CCc1ccc(NS(=O)(=O)c2c(-c3ccccc3)csc2C(=O)OC)cc1 | 2 µM [rising, partial curve] |  |
| CCOC(=O)CS(=O)(=O)c1nc(-c2ccccc2)cc(C(F)(F)F)n1 |  | 35.5 µM [rising, single point] |
| CS(=O)(=O)Nc1ccccc1C(=O)Nc1cccc(Cl)c1 | 20 µM [rising, partial curve, poor fit] |  |
| CCN(CC)c1nc(-c2ccccn2)nc(-c2ccccc2)c1C#N |  | 1.12 µM [falling, partial curve, poor fit] |
| COc1cc(C(=O)N/C(=C\c2cn(C)c3ccccc23)C(=O)NCCCO)cc(OC)c1OC | 0.0398 µM [falling, full curve] | 0.0398 µM [falling, full curve, poor fit] |
| O=C(Nc1cccc(F)c1)c1cc(S(=O)(=O)N2CCC(C(=O)O)CC2)ccc1F | 1.41 µM [falling, full curve] | 1.41 µM [falling, partial curve] |
| O=C(N/N=C/c1cccs1)c1ccc(NC(=O)c2ccccc2Cl)cc1 | 12.6 µM [rising, single point] |  |
| COc1ccc(C[C@H]2COC(=O)[C@@H]2Cc2ccc(OC3OC(CO)C(O)C(O)C3O)c(OC)c2)cc1OC (stereo partly specified) | 7.94 µM [rising, partial curve] |  |
| CCOC(=O)c1ccccc1NC(=O)Cn1c(=O)n(-c2ccc(CC)cc2)c(=O)c2c(C)c(C(=O)N(C)C)sc21 | 2.82 µM [falling, partial curve, poor fit] |  |
| CCOc1ccccc1CNC(=O)c1ccc2c(c1)nc1n2CCC(C)C1 (stereo unspecified) | 22.4 µM [rising, single point] |  |
| Cc1ccc(SCCNS(=O)(=O)c2ccc3c(c2)OCCO3)cc1 | 31.6 µM [rising, single point] |  |
| COc1ccc(/C=C/C(=O)OCCCN(C)C)cc1 | 0.112 µM [falling, partial curve, poor fit] |  |
| O=C(Nc1ccc(F)c(Cl)c1)C1CCN(S(=O)(=O)c2ccc3c(c2)CCCN3C(=O)C2CCC2)CC1 | 1 µM [falling, full curve, poor fit] |  |
| COc1ccccc1N1CCN(Cc2ccc(O)c3ncccc23)CC1 | 11.2 µM [rising, partial curve] |  |
| CC[C@H]1NC(=O)c2cc(S(N)(=O)=O)c(Cl)cc2N1 | 0.0447 µM [rising, full curve, poor fit] | 14.1 µM [falling, single point] |
| O=C(Cn1c(SCC(=O)Nc2ccc(F)cc2)nc2ccccc21)NCc1ccc(Cl)cc1 | 17.8 µM [falling, single point] |  |
| Cc1nn(Cc2c(F)c(F)c(F)c(F)c2F)c(C)c1NC(=O)c1ccc(COc2ccc(Cl)cc2Cl)o1 | 11.2 µM [rising, partial curve] | 1.12 µM [rising, partial curve] |
| CCN(CC1COc2ccccc2O1)C(=S)Nc1ccccc1 (stereo unspecified) | 15.8 µM [rising, single point] |  |
| Cc1ccc(S(=O)(=O)N(C)c2c(C)ccc(S(=O)(=O)NC(C)(C)C)c2C)cc1 | 22.4 µM [falling, single point] |  |

Some values from the list:
AC50 [1], COc1ccccc1N1CCN(Cc2ccc(O)c3ncccc23)CC1 reads 11.2 µM [rising, partial curve]
AC50 [1], CCOC(=O)c1ccccc1NC(=O)Cn1c(=O)n(-c2ccc(CC)cc2)c(=O)c2c(C)c(C(=O)N(C)C)sc21 reads 2.82 µM [falling, partial curve, poor fit]

The list goes on:

| SMILES | AC50 [1] | AC50 [2] |
| --- | --- | --- |
| CC(=O)c1cccc(N=c2scc(-c3ccc(S(=O)(=O)N4CCOCC4)cc3)n2CCO)c1 | 1.12 µM [rising, full curve] | 12.6 µM [rising, partial curve] |
| COc1cccc(/C=N/NC(=O)c2c(-c3ccccc3)noc2C)c1O | 6.31 µM [falling, partial curve] | 3.16 µM [falling, full curve] |
| Cc1ccc2nc(N=C(N)N)nc(C)c2c1 |  | 15.8 µM [falling, partial curve, poor fit] |
| CC1(C)CC(=O)c2cc(O)ccc2O1 |  | 3.16 µM [falling, partial curve, poor fit] |
| CSCCC(NS(=O)(=O)c1ccc(Cl)cc1)C(=O)OCC(=O)NC12CC3CC(CC(C3)C1)C2 (stereo unspecified) | 35.5 µM [rising, single point] |  |
| COc1ccc(-c2noc(CCC(=O)NCCCN3CCC(Cc4ccccc4)CC3)n2)cc1 | 25.1 µM [rising, single point] |  |
| Cc1nnc(SCC(=O)c2ccc(C(C)C)cc2)s1 |  | 6.31 µM [falling, single point] |
| Cc1cc(C)nc(NC(=O)c2cc(-c3ccc(C)s3)nc3ccccc23)c1 | 11.2 µM [rising, partial curve] | 7.94 µM [rising, partial curve] |
| CCCCn1c(SCc2ncc(-c3ccccc3)o2)nc2cc(S(N)(=O)=O)ccc21 | 12.6 µM [rising, partial curve] |  |
| O=C(Cn1c(=O)ccc2cc(S(=O)(=O)N3CCCC3)ccc21)Nc1ccc(Cl)cc1 |  | 0.158 µM [falling, full curve, poor fit] |
| CC(Cc1cccs1)NC(=O)c1cccc(Cl)c1 (stereo unspecified) | 0.0891 µM [rising, partial curve, poor fit] |  |
| COc1cc2ccccc2cc1C(=O)NCC(c1cccs1)N(C)C (stereo unspecified) | 12.6 µM [rising, partial curve, poor fit] |  |
| COc1ccc(C2=NOC(C(=O)N(C)Cc3ccccc3)C2)cc1 (stereo unspecified) | 0.794 µM [rising, single point] | 0.708 µM [rising, partial curve] |
| CCOC(=O)N1CCc2c(sc(NC(=O)CN3CCOCC3)c2C(=O)Nc2ccccc2)C1 | 25.1 µM [rising, single point] |  |
| CCC(CC)c1nnc(NC(=O)Cc2cccs2)s1 | 5.01 µM [falling, full curve, poor fit] |  |
| CCOC(=O)c1cc(C)n(Cc2cccc(OC)c2OC)c1C | 31.6 µM [rising, single point] |  |
| O=C(NCc1cccnc1)C(=O)NCC(c1ccco1)N1CCN(c2ccccc2F)CC1 (stereo unspecified) | 25.1 µM [rising, single point] |  |
| COC(=O)/C(C#N)=C/c1c(Oc2cc(C)cc(C)c2)nc2c(C)cccn2c1=O | 0.112 µM [rising, full curve] | 0.178 µM [rising, full curve, poor fit] |
